In patent publication US20070050866A1 one finds binding data, which are given here for 1 molecule.

Sequences of proteins named here, by UniProt entry; tags and fusion partners are left off.
UniProt Q9C9W9: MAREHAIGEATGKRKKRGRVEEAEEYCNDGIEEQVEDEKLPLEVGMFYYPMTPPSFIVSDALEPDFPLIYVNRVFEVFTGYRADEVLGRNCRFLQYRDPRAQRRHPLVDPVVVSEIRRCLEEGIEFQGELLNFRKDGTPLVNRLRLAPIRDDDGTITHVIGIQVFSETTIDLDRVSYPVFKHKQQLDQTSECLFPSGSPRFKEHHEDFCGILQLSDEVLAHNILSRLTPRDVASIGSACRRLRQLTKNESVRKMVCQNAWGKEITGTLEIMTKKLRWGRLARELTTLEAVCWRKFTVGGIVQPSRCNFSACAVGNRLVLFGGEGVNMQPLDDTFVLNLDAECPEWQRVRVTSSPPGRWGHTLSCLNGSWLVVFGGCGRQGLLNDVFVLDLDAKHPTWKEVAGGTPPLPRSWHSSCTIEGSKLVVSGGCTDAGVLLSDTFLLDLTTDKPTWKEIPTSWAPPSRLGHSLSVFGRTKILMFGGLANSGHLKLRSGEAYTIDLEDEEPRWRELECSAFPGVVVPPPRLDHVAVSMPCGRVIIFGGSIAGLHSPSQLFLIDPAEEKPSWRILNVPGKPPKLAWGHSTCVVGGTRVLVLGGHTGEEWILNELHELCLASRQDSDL

The target in the assay is YFP-FKF1 (UniProt Q9C9W9). As to the kind of experiment: co-localisation of CFP and YFP fusions co-injected into onion epidermal cells (indirect; interaction inferred from the same location).

These are yes or no findings as the source states them, for the method shown. Some entries that bind do so weakly or less than the wild type. Sequences can lack the tags named with a protein.

B1: CFP-COL8 (protein, Arabidopsis thaliana, UniProt Q9M9B3 1-319, looked up, not shown: large carriers)
chain: MFCAEIMISKYQEDVKQPRACELCLNKHAVWYCASDDAFLCHVCDESVHSANHVATKHERVCLRTNEISNDVRGGTTLTSVWHSGFRRKARTPRSRYEKKPQQKIDDERRREDPRVPEIGGEVMFFIPEANDDDMTSLVPEFEGFTEMGFFLSNHNGTEETTKQFNFEEEADTMEDLYYNGEEEDKTDGAEACPGQYLMSCKKDYDNVITVSEKTEEIEDCYENNARHRLNYENVIAAWDKQESPRDVKNNTSSFQLVPPGIEEKRVRSEREARVWRYRDKRKNRLFEKKIRYEVRKVNADKRPRMKGRFVRRSLAIDS
Turning to B1, the binding result is “binds”.
